Measured values as given in PubChem BioAssay (Tox21).
Several values for one entry are separate records, joined by “and”; a condition that tells them apart may be missing. Identical values can stand only once. The inconclusive results got no clear call from the source; some entries with a clear call stand among them for comparison. Potencies of inconclusive entries are doubtful fits and often do not repeat. Some compounds were tested as several samples or in several runs, with calls that do not always agree. Activity calls are given as the source filed them. Calls come from the whole dose curve; as a rule, active = well fitted inhibition curve with a large enough effect in the repeat runs; inconclusive = weak or mixed curves; inactive = no such curve, though single readings can be large or run the other way.

The chains behind the UniProt entries cited, without tags or fusion partners.
UniProt P11712, whole entry, looked up: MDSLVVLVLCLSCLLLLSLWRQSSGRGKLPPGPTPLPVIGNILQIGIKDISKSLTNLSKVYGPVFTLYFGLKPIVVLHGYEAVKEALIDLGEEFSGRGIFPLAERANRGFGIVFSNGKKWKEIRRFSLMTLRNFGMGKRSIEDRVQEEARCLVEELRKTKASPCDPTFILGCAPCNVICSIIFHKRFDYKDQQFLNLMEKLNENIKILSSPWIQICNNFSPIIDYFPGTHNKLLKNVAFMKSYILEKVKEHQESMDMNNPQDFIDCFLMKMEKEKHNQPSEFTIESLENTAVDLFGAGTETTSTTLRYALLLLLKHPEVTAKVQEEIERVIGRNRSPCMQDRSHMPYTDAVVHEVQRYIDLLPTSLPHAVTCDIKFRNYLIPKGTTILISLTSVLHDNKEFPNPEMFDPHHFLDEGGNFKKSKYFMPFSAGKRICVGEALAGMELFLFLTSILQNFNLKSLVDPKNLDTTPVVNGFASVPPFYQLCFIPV

What follows are compounds tested against Cytochrome P450 2C9 (Homo sapiens) (UniProt P11712) (assay: Cytochrome P450 Family 2 Subfamily C Member 9 (CYP2C9) small molecule antagonists: luciferase reporter qHTS assay (AID 1671198; note: nearly all actives have a fitted effect of over 50% in size)). Conditions: P450-Glo CYP2C9 enzyme assay, luciferin luminescence; series mostly up to 115 µM.
Outline: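 P450-Glo proluciferin substrate with CYP2C9 enzyme; 10 min RT preincubation, then NADPH regeneration 1 h at 37C; luciferin detection reagent 20 min RT, luminescence in relative luminescence units.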
Potency is the fitted concentration of half-maximal effect.

Compound | Potency
O=S(=O)(O)c1cc(S(=O)(=O)O)c2c(N=Nc3ccccc3)c(O)ccc2c1 | inconclusive: 56.6 µM [inhibitor, partial curve]
CCOC(=O)Cn1cccc1-c1nc(-c2ccc(OC)cc2)c(-c2ccc(OC)cc2)s1 | active: 3.89 µM
C[C@@H]1C[C@H]2[C@@H]3C[C@H](F)C4=CC(=O)C(Cl)=C[C@]4(C)[C@@]3(F)[C@@H](O)C[C@]2(C)[C@@]1(O)C(=O)CO | inconclusive: 19.5 µM [inhibitor, partial curve, poor fit]
CC/C=C1/OC(=O)c2ccccc21 | inconclusive: 34.8 µM [inhibitor]
CCCCOCCOCCSC#N | inconclusive: 37.5 µM [inhibitor, partial curve]
Cc1cc(O)ccc1O | inconclusive: 3.6 µM [inhibitor, full curve]
CCOC(=O)c1ccc(OCCN2C[C@H](O)[C@@H](O)[C@H](O)[C@H]2CO)cc1 | inactive
CCC(=O)C1CC(C(C)C)CC=C1C (configuration not stated) | inconclusive: 56.4 µM [inhibitor, partial curve]
CC(=O)CCC(C)C | inactive
Cc1oc(=O)oc1COC(=O)[C@@H]1N2C(=O)[C@@H](NC(=O)[C@H](N)c3ccccc3)[C@H]2SC1(C)C | inconclusive: 38.9 µM [inhibitor, partial curve]
O=C(O)CCc1nc(-c2ccccc2)c(-c2ccccc2)o1 | inconclusive: 34.7 µM [inhibitor, single point]
O=[Se](O)O | inconclusive: 13.6 µM [inhibitor, partial curve, poor fit]
Cc1cc(C)nc(NS(=O)(=O)c2ccc(N)cc2)n1 | inactive
CCc1cccc(O)c1 | inactive
Cc1cc(=O)oc2cc(O)ccc12 | inactive and inconclusive: 39.9 µM [inhibitor, partial curve]
CCCC(CCC)C(=O)O | inconclusive: 70.7 µM [inhibitor, partial curve]
c1ccc2cc3c(ccc4ccccc43)cc2c1 | inconclusive: 28.4 µM [inhibitor, partial curve, poor fit]
